The other results are listed elsewhere or left out.
Legend:
Test in all cases: log2 fold change, soluble protein after heating vs DMSO (PISA); higher = thermal stabilisation; K562 cells, 10 uM, 30 min; active = over 0.2 and 3.5 SD of the protein, either way, in both replicates (recomputed)
erlotinib = compound: C#Cc1cccc(Nc2ncnc3cc(OCCOC)c(OCCOC)cc23)c1 [erlotinib]
How it was run: (§1)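 K562 cells at 2×10^6 cells/mL were treated for 30 min with 10 μM compound, and aliquots were heated for 3 min over 48°C-58°C before pooling. Extraction used PBS with 0.5% NP-40 at 4°C, and soluble protein was the supernatant after 21,000xg for 90 min, measured by TMTpro 16plex LC-MS/MS with channel sums equalised. Thermal stability values, relative to control samples and from duplicates, are log2 fold changes.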

Protein sequences, listed by entry. Tags and fused reporters are not part of them. Lines headed by an entry give the natural chain unless they say otherwise; changes in a name come on top.
UniProt Q9UJW0, whole entry, looked up: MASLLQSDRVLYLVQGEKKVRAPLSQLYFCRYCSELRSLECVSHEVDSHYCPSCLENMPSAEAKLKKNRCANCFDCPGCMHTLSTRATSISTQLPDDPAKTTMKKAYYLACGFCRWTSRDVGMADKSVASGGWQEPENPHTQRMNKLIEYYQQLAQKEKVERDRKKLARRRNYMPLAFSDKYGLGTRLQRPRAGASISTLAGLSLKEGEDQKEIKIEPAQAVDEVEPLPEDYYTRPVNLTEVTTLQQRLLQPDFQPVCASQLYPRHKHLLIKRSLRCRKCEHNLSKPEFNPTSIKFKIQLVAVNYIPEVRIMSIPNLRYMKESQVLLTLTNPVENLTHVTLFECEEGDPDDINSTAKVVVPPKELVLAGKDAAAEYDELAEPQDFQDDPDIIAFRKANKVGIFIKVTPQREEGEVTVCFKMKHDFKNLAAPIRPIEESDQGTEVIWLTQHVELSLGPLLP
UniProt Q9UER7, whole entry, looked up: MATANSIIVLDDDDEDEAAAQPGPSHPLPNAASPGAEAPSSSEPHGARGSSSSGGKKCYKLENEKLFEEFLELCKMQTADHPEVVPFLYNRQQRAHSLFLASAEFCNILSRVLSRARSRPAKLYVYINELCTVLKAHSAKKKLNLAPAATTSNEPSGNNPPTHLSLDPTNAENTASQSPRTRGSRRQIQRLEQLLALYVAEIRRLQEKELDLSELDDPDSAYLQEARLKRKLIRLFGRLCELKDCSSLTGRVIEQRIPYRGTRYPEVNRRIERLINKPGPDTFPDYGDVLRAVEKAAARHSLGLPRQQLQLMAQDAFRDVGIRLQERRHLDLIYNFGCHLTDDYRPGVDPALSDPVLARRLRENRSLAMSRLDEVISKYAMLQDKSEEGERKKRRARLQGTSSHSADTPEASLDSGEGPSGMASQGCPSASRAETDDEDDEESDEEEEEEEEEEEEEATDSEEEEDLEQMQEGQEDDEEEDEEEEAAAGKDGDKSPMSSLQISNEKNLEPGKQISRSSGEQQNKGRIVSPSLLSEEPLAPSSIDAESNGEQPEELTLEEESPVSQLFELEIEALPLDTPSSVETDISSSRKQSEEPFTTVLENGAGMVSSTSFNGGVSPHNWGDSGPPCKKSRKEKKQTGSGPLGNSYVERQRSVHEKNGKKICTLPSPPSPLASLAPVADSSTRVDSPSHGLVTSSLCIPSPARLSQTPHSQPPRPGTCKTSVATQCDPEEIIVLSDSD
UniProt Q9UHQ9: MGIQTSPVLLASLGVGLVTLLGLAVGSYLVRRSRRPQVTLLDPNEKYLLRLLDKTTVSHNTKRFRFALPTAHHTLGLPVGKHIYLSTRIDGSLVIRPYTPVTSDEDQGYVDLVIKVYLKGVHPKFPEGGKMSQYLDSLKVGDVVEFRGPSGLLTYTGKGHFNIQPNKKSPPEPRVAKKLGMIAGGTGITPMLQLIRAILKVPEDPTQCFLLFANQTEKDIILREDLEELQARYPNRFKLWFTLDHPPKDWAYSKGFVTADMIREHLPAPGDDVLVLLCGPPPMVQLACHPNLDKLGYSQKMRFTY
UniProt P07711: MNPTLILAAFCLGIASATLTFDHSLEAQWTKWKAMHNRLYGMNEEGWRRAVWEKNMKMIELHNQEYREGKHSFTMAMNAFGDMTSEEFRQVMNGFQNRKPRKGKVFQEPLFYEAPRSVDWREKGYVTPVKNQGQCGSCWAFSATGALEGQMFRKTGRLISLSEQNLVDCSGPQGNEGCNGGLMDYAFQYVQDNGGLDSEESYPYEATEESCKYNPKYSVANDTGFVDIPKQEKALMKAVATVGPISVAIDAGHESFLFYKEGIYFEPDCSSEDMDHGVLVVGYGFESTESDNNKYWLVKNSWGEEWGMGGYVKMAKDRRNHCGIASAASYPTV
UniProt Q7L576: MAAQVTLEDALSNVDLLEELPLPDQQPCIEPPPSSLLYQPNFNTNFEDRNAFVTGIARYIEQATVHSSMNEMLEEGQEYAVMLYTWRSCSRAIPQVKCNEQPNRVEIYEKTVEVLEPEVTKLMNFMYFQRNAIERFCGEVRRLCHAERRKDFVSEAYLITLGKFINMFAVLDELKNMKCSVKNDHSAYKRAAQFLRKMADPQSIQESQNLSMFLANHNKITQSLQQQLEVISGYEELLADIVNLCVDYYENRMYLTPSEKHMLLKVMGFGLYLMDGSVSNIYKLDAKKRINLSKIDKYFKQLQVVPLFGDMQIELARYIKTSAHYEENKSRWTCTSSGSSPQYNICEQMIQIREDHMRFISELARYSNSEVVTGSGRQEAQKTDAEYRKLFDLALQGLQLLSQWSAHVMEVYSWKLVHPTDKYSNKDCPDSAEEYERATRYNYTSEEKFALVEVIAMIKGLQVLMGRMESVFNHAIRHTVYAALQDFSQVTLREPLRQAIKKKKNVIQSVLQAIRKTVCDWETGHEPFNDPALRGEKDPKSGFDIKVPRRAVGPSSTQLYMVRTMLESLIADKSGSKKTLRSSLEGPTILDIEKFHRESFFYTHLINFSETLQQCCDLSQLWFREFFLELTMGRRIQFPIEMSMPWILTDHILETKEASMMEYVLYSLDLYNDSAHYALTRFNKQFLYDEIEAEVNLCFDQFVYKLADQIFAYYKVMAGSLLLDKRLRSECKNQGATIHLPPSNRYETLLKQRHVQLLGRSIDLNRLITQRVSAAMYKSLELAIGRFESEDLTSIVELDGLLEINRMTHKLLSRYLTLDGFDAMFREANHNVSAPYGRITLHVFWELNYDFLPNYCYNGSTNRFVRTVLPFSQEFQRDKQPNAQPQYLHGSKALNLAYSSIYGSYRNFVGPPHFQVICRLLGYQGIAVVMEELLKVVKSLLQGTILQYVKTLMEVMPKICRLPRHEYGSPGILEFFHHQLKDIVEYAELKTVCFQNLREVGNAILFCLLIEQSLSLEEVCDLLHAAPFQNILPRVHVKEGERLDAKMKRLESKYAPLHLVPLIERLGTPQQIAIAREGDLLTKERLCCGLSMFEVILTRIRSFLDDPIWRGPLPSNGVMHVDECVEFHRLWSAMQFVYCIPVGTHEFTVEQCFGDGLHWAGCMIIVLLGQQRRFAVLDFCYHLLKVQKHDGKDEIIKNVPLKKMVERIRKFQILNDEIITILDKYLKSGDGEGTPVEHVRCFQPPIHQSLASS
UniProt O60911: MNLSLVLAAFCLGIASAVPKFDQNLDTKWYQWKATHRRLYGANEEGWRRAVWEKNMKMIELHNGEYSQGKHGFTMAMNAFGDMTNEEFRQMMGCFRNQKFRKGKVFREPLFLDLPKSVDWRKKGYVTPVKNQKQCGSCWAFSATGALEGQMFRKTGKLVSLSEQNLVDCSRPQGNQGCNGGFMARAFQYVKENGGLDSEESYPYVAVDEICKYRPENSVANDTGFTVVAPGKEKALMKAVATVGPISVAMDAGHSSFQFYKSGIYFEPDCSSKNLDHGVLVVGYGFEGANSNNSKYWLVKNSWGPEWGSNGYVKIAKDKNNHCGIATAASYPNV
UniProt P00387: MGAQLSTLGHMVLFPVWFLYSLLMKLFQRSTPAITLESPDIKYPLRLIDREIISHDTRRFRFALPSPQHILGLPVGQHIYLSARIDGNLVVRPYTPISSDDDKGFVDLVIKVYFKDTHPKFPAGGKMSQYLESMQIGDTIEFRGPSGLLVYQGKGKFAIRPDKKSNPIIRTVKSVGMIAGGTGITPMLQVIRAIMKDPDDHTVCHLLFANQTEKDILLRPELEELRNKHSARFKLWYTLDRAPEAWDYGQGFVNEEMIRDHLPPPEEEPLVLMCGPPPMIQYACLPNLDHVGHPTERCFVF
UniProt P10619: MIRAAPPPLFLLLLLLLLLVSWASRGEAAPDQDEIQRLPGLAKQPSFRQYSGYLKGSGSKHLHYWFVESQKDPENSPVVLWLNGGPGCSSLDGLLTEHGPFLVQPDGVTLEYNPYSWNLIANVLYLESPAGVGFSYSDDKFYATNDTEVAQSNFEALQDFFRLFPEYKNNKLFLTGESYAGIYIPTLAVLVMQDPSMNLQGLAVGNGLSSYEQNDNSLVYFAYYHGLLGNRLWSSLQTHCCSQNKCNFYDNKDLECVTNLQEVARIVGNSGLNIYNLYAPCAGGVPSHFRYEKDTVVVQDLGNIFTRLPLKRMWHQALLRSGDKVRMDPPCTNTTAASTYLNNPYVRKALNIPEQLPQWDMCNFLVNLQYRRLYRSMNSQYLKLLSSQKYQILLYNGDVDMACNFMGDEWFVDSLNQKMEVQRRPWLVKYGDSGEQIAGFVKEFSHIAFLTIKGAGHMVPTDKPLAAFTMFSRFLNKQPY
UniProt O75935, whole entry, looked up: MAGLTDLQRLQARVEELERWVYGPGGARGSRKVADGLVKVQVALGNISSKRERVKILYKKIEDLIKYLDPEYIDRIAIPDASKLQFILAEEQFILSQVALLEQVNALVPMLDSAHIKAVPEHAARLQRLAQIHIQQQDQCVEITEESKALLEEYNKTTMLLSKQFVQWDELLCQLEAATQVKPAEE
UniProt P61803: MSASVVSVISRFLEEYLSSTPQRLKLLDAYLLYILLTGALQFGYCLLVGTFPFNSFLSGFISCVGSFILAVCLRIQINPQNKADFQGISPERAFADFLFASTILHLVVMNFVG
UniProt Q9H773: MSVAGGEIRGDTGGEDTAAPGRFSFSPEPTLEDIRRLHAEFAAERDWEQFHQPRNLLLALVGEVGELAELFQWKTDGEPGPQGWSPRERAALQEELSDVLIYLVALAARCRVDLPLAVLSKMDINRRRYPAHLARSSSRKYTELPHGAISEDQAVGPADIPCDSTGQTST
UniProt Q9Y6A2: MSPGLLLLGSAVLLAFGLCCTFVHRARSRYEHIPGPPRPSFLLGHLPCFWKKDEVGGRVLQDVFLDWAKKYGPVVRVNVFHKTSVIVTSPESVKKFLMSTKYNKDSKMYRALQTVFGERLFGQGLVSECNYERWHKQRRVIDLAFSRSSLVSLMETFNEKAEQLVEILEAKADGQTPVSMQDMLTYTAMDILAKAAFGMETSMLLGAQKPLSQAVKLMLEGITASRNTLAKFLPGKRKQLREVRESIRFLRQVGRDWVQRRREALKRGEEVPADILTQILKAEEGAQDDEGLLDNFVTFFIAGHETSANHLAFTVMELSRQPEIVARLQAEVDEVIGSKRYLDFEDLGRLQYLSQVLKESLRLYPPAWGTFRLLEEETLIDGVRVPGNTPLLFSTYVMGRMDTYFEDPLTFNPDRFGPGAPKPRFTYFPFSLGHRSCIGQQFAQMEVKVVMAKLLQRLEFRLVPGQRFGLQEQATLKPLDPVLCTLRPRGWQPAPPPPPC
UniProt O95196: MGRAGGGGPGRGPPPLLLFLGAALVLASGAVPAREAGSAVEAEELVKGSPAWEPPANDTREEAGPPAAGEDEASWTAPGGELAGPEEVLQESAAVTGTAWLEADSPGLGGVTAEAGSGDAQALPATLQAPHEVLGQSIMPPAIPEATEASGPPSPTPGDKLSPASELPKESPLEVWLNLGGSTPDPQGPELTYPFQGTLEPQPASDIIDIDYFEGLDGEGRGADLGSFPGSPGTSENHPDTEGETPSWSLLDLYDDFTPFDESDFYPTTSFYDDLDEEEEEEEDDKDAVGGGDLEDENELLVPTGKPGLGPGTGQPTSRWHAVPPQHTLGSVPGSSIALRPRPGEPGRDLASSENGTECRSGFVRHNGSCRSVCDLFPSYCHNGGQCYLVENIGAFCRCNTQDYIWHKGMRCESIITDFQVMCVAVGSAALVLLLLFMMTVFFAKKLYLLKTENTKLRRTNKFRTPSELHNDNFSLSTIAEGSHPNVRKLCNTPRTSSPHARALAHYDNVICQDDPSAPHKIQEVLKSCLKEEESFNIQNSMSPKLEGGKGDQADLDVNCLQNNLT
UniProt Q8N8Z6: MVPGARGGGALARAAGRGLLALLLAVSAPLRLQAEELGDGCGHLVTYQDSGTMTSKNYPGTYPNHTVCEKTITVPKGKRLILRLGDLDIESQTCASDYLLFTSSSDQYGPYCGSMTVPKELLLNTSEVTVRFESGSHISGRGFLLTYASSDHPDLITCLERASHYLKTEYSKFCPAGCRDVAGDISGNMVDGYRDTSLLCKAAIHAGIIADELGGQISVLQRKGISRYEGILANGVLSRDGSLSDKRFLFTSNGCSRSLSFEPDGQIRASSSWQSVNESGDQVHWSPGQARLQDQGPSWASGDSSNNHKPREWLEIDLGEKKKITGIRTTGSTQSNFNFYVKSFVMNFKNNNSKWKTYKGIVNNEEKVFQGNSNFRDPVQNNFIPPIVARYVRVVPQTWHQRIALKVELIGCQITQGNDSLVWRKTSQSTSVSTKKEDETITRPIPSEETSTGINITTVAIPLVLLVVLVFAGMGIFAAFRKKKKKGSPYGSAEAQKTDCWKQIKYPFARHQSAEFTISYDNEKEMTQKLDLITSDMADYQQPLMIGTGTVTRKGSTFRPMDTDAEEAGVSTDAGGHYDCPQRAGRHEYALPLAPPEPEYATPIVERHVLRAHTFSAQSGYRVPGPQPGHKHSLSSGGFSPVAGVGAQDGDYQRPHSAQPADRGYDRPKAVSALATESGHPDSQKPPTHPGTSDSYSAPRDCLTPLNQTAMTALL
UniProt P01037: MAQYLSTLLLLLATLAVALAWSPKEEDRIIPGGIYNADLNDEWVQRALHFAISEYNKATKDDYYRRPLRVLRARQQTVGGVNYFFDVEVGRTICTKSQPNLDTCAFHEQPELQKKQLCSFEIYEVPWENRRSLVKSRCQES

[1] = compound: C/C(=N\NC(=O)C1=CC(=CC=C1)S(=O)(=O)N2CCOCC2)/C3=C(C=CC(=C3)Cl)O
How it was run: as §1

[2] = compound: C1=CC(=C(C=C1Cl)C2=NC3=NC=CN=C3C(=N2)NC4=CC=NC=C4)F
How it was run: as §1

[3] = compound: C1=CC(=CC=C1C2=NC3=C(N2)C=C(C=C3)C(=O)N)OC4=CC=C(C=C4)Cl
How it was run: as §1

[4] = compound: C1=CC2=C(C=CC(=C2)/C=C\3/C(=O)NC(=NCC4=CC=CS4)S3)N=C1
How it was run: as §1

[5] = compound: C1=CC2=NC=CN=C2C=C1/C=C/3\C(=O)NC(=O)S3
How it was run: as §1

[6] = compound: C1=CC=C(C=C1)C2=NC(=C(N2)C3=CC=NC=C3)C4=CC(=C(C=C4)Cl)O
How it was run: as §1

[7] = compound: C1=CC=C2C(=C1)C3=NNC4=CC=CC(=C43)C2=O
How it was run: as §1

[8] = compound: C1CCN(C1)C(=O)NC2=CC=CC(=C2)NC3=NC=C(C(=N3)NCCC4=CN=CN4)Br
How it was run: as §1

[9] = compound: C1CN(CCC1(CC2=CC=C(C=C2)Cl)N)C3=NC=NC4=C3C=CN4
How it was run: as §1

Measured: log2 fold change

CTH (UniProt P32929)
inactive: erlotinib 0.009 | [1] 0.029 | [2] 0.062 | [3] 0.005 | [4] -0.06 | [5] 0.001 | [6] 0.08 | [7] -0.02 | [8] -0.015 | [9] 0.042

CXorf56 (UniProt Q9H5V9)
inactive: erlotinib 0.031 | [1] -0.042 | [2] -0.029 | [3] -0.003 | [4] -0.004 | [5] 0.004 | [6] 0.023 | [7] 0.044 | [8] -0.039 | [9] -0.002

DCTN4 (UniProt Q9UJW0)
inactive: erlotinib -0.028 | [1] 0.024 | [2] -0.035 | [3] 0.013 | [4] -0.043 | [5] -0.011 | [6] -0.044 | [7] -0.022 | [8] -0.043 | [9] -0.008

DAXX (UniProt Q9UER7)
active: [1] -0.662
inactive: erlotinib 0.212 | [3] 0.037 | [4] 0.072 | [5] 0.012 | [6] 0.055 | [7] 0.009 | [8] -0.148 | [9] 0.224

CSTF2 (UniProt P33240)
inactive: erlotinib 0.032 | [1] -0.002 | [2] -0.011 | [3] 0.017 | [4] 0.017 | [5] 0.051 | [6] -0.076 | [7] 0.023 | [8] 0.033 | [9] -0.061

CYB561 (UniProt P49447)
inactive: erlotinib -0.103 | [1] 0.165 | [3] 0.017 | [4] -0.124 | [5] 0.09 | [6] 0.155 | [7] 0.049 | [8] -0.075 | [9] 0.082

CWC25 (UniProt Q9NXE8)
inactive: erlotinib -0.056 | [1] -0.27 | [2] -0.557 | [3] 0.209 | [4] -0.139 | [5] -0.028 | [6] -0.134 | [7] -0.033 | [8] 0.058 | [9] 0.053

CUL1 (UniProt Q13616)
inactive: erlotinib 0.006 | [1] 0.031 | [2] 0.056 | [3] -0.014 | [4] -0.021 | [5] 0.024 | [6] 0.064 | [7] -0.023 | [8] -0.011 | [9] 0.038

CYB5R1 (UniProt Q9UHQ9)
inactive: erlotinib 0.028 | [1] 0.047 | [2] 0.053 | [3] -0.001 | [4] 0.073 | [5] 0.02 | [6] -0.051 | [7] -0.008 | [8] 0.02 | [9] 0.012

CTSL (UniProt P07711)
inactive: erlotinib -0.005 | [1] -0.173 | [2] -0.036 | [3] -0.022 | [4] -0.203 | [5] 0.019 | [6] -0.002 | [7] -0.041 | [8] -0.023 | [9] 0.005

CYP2S1 isoform 2 (UniProt Q96SQ9)
inactive: erlotinib 0.008 | [1] -0.025 | [3] 0.032 | [4] 0.359 | [5] -0.056 | [6] 0.096 | [7] -0.09

CYFIP1 (UniProt Q7L576)
inactive: erlotinib -0.016 | [1] 0.066 | [2] 0.07 | [3] 0.018 | [4] 0.002 | [5] 0.026 | [6] 0.003 | [7] -0.016 | [8] 0.005 | [9] 0.059

DCAF4L2 (UniProt Q8NA75)
inactive: erlotinib 0.053 | [1] 0.017 | [3] -0.079 | [4] 0.01 | [5] 0.058 | [6] -0.075 | [7] -0.07 | [8] -0.075 | [9] 0.017

CTSV (UniProt O60911)
inactive: erlotinib 0.043 | [1] -0.105 | [2] 0.023 | [3] -0.054 | [4] 0.035 | [5] -0.004 | [6] 0.024 | [7] 0.023 | [8] 0.04 | [9] 0.022

CYB5R3 isoform 3 (UniProt P00387)
inactive: erlotinib 0.024 | [1] 0.017 | [2] 0.039 | [3] -0.039 | [4] 0.038 | [5] 0.013 | [6] -0.008 | [7] -0.025 | [8] 0.045 | [9] 0.01

DCAF8 (UniProt Q5TAQ9)
inactive: erlotinib -0.041 | [1] -0.017 | [2] 0.012 | [3] 0.062 | [4] 0.024 | [5] 0.002 | [6] 0.006 | [7] 0.073 | [8] -0.015 | [9] 0.001

CT55 (UniProt Q8WUE5)
inactive: erlotinib 0.081 | [1] -0.017 | [2] -0.073 | [3] -0.022 | [4] 0.09 | [5] 0.021 | [7] 0.026 | [8] -0.017 | [9] 0.013

CTSA (UniProt P10619)
inactive: erlotinib -0.058 | [1] -0.065 | [2] 0.001 | [3] -0.004 | [4] -0.053 | [5] 0.018 | [6] 0.04 | [7] 0.003 | [8] 0.021 | [9] 0.051

DCTN3 (UniProt O75935)
inactive: erlotinib 0.021 | [1] 0.005 | [2] 0.015 | [3] -0.006 | [4] 0.001 | [5] 0.004 | [6] 0.003 | [7] 0.028 | [8] -0.021 | [9] -0.082

DBNL isoform 3 (UniProt Q9UJU6)
inactive: erlotinib 0.06 | [1] 0.024 | [2] 0.034 | [3] -0.063 | [4] -0.012 | [5] 0.146 | [6] -0.008 | [7] -0.004 | [8] -0.084 | [9] -0.066

CYP4V2 (UniProt Q6ZWL3)
inactive: erlotinib 0.022 | [1] 0.047 | [2] -0.082 | [3] 0.154 | [4] -0.009 | [6] 0.087 | [7] -0.071

DCAF10 (UniProt Q5QP82)
inactive: erlotinib 0.01 | [1] 0.014 | [2] 0.021 | [3] 0.029 | [4] -0.038 | [5] 0.064 | [6] -0.077 | [7] -0.013 | [8] 0.029 | [9] 0.006

CYTH2 (UniProt Q99418)
inactive: erlotinib 0.014 | [1] 0.195 | [3] 0.005 | [4] 0.224 | [5] -0.017 | [7] -0.021 | [8] 0.052 | [9] -0.308

DAD1 (UniProt P61803)
inactive: erlotinib 0.02 | [1] 0.05 | [2] -0.357 | [3] 0.162 | [4] 0.016 | [5] 0.117 | [7] -0.059 | [8] 0.038 | [9] -0.008

DCAF11 (UniProt Q8TEB1)
inactive: erlotinib 0.019 | [1] -0.003 | [2] 0.05 | [3] 0.033 | [4] 0.14 | [5] 0.051 | [6] -0.039 | [7] -0.067 | [8] -0.037 | [9] -0.01

DCTPP1 (UniProt Q9H773)
inactive: erlotinib 0.01 | [1] -0.07 | [2] 0.14 | [3] -0.039 | [4] -0.073 | [5] 0.035 | [6] 0.194 | [7] 0.012 | [8] -0.021 | [9] -0.054

CYP24A1 (UniProt Q07973)
inactive: erlotinib -0.042 | [3] -0.072 | [4] 0.015 | [5] -0.13 | [6] 0.091 | [7] -0.057 | [8] 0.179 | [9] 0.046
active: [1] -0.796

CYP46A1 (UniProt Q9Y6A2)
inactive: [1] -0.02 | [4] 0.097 | [5] 0.031 | [6] -0.454 | [7] 0.14 | [8] 0.072 | [9] -0.062

CSPG5 (UniProt O95196)
inactive: erlotinib -0.002 | [2] 0.143 | [3] -0.084

DCBLD1 (UniProt Q8N8Z6)
inactive: [2] 0.034

CST1 (UniProt P01037)
inactive: [2] -0.097 | [5] -0.158

Looked up one by one from the entries so far, two records:
DCAF10 (UniProt Q5QP82)
inactive: erlotinib 0.01 | [1] 0.014 | [2] 0.021 | [3] 0.029 | [4] -0.038 | [5] 0.064 | [6] -0.077 | [7] -0.013 | [8] 0.029 | [9] 0.006

DCAF8 (UniProt Q5TAQ9)
inactive: erlotinib -0.041 | [1] -0.017 | [2] 0.012 | [3] 0.062 | [4] 0.024 | [5] 0.002 | [6] 0.006 | [7] 0.073 | [8] -0.015 | [9] 0.001

Later entries

CTDNEP1 (UniProt O95476)
inactive: erlotinib -0.163 | [1] -0.04 | [3] -0.052 | [4] 0.086 | [7] -0.007 | [8] -0.287 | [9] 0.153

Source: the supplement of paper PMC10849652
